Reference: article PMC11404752
Results are given in words; binding and its absence hold for the method and conditions named. For part of these data: In cells and extracts the contact can be indirect. Some binding calls cover weakened binding; strength is not graded here. Blank lines part the entries; values can stand above or below the molecule they belong to.

Amino acid sequences for entries named in this document (tags omitted). A change or cut given only in a name is not applied to a line headed by its entry. Chains listed by the source or under a name are the forms on record and can include a tag or linker.
soluble Fms-like tyrosine kinase-1 (human (endogenous in serum)) (P17948, form named): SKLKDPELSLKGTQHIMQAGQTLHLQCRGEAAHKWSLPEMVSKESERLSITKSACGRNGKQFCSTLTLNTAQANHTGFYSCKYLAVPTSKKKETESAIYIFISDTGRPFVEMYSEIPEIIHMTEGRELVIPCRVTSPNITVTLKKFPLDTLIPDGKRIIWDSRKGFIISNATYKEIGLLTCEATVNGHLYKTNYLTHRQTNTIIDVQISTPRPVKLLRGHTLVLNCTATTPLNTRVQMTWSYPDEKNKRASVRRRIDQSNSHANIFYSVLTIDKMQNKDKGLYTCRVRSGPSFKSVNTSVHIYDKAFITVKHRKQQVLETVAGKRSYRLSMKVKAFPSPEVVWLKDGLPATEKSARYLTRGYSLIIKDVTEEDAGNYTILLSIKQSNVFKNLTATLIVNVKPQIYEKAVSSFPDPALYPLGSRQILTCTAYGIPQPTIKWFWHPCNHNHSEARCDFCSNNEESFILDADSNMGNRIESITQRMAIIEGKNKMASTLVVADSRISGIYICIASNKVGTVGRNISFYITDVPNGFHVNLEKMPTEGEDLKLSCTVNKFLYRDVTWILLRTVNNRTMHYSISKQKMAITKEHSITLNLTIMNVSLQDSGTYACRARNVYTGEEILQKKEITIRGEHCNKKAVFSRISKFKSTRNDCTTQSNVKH
UniProt P21926: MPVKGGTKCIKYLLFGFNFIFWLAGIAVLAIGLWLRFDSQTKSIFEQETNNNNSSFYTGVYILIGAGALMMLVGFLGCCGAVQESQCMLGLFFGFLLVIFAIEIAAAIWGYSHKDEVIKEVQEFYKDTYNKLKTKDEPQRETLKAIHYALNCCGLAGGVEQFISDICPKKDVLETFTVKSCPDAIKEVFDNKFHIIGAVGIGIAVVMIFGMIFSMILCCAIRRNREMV

How the values were obtained:
[1] = target: T1, placental growth factor (human (endogenous in serum)) (UniProt P49763); assay: co-IP; anti-PlGF or anti-Flt-1 (2 ug/mL) added to a serum pool for 30 minutes at room temperature, captured by Dynabeads Streptavidin, immunoblotting of PlGF, sFlt-1, CD9, ApoA-I and ApoB
T1 sequence: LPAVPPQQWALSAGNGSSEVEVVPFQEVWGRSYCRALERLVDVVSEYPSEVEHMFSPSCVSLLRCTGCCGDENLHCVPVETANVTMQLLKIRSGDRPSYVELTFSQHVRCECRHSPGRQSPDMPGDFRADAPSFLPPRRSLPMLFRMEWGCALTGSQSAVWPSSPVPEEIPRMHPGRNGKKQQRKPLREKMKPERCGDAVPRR

[2] = target: soluble Fms-like tyrosine kinase-1 (human (endogenous in serum)) (UniProt P17948); assay: as above
[3] = target: soluble Fms-like tyrosine kinase-1 (human (endogenous in serum)) (UniProt P17948); assay: ELISA; free versus total PlGF in FPLC fractions of serum; total PlGF measured after heating the samples at 70 °C for 10 minutes to destroy sFlt-1

- binding [1]: binds
- binding [2]: binds
Molecule: CD9 (from UniProt P21926 1-228)

- binding [3]: binds
B1: placental growth factor (ligand, UniProt P49763 19-221)
chain: T1 sequence
